Experiments:
gut microbiome = assay: Phase I healthy volunteer study: stool microbiome by shotgun metagenomic / 16S sequencing (alpha/beta diversity, taxa); format: in vivo, human; conditions: healthy subjects
[1] = test system: primary and secondary bile acids; assay: Phase I healthy volunteer study: stool bile acids by LC-MS; format: in vivo, human; conditions: healthy subjects, vancomycin 125 mg four times daily 10 days
[2] = vancomycin 125 mg four times daily 10 days

CN[C@H](CC(C)C)C(=O)N[C@H]1C(=O)N[C@@H](CC(N)=O)C(=O)N[C@H]2C(=O)N[C@H]3C(=O)N[C@H](C(=O)N[C@H](C(=O)O)c4cc(O)cc(O)c4-c4cc3ccc4O)[C@H](O)c3ccc(c(Cl)c3)Oc3cc2cc(c3O[C@@H]2O[C@H](CO)[C@@H](O)[C@H](O)[C@H]2O[C@H]2C[C@](C)(N)[C@H](O)[C@H](C)O2)Oc2ccc(cc2Cl)[C@H]1O [Vancomycin, vancomycin, reference compound]
Proportional change (mean ± SE): Actinobacteria (phylum) (gut microbiome; Vancomycin 125 mg): −0.11 ± 0.05 | Proportional change (mean ± SE): Bacteroidetes (phylum) (gut microbiome; Vancomycin 125 mg): −0.034 ± 0.024 | Proportional change (mean ± SE): Firmicutes (phylum) (gut microbiome; Vancomycin 125 mg): −0.14 ± 0.058 | Proportional change (mean ± SE): Fusobacteria (phylum) (gut microbiome; Vancomycin 125 mg): 0.036 ± 0.015 | Proportional change (mean ± SE): Proteobacteria (phylum) (gut microbiome; Vancomycin 125 mg): 0.23 ± 0.045 | Proportional change (mean ± SE): c_Actinobacteria (gut microbiome; Vancomycin 125 mg): −0.074 ± 0.051 | Proportional change (mean ± SE): c_Actinobacteria o_Bifidobacteriales (gut microbiome; Vancomycin 125 mg): −0.080 ± 0.051 | Proportional change (mean ± SE): c_Actinobacteria o_Bifidobacteriales f_Bifidobacteriaceae (gut microbiome; Vancomycin 125 mg): −0.078 ± 0.051 | Proportional change (mean ± SE): c_Bacilli (gut microbiome; Vancomycin 125 mg): 0.30 ± 0.043 | Proportional change (mean ± SE): c_Bacilli o_Lactobacillales (gut microbiome; Vancomycin 125 mg): 0.30 ± 0.043 | Proportional change (mean ± SE): c_Bacilli o_Lactobacillales f_Lactobacillaceae (gut microbiome; Vancomycin 125 mg): 0.28 ± 0.041 | Proportional change (mean ± SE): c_Coriobacteriia (gut microbiome; Vancomycin 125 mg): −0.038 ± 0.015 | Proportional change (mean ± SE): c_Coriobacteriia o_Coriobacteriales (gut microbiome; Vancomycin 125 mg): −0.031 ± 0.015 | Proportional change (mean ± SE): c_Coriobacteriia o_Coriobacteriales f_Coriobacteriaceae (gut microbiome; Vancomycin 125 mg): −0.032 ± 0.015 | Proportional change (mean ± SE): c_Gammaproteobacteria (gut microbiome; Vancomycin 125 mg): 0.21 ± 0.045 | Proportional change (mean ± SE): c_Gammaproteobacteria o_Enterobacterales (gut microbiome; Vancomycin 125 mg): 0.17 ± 0.042 | Proportional change (mean ± SE): c_Gammaproteobacteria o_Enterobacterales f_Enterobacteriaceae (gut microbiome; Vancomycin 125 mg): 0.17 ± 0.041 | Pielous alpha diversity, average change ± standard deviation over the study time period (gut microbiome; [2]): −0.073 ± 0.024 (0.0016) | Simpson's alpha diversity, average change ± standard deviation over the study time period (gut microbiome; [2]): −0.070 ± 0.023 (0.0020) | Shannon alpha diversity, average change ± standard deviation over the study time period (gut microbiome; vancomycin 125 mg four times daily 10 days, p vs placebo in brackets): −0.36 ± 0.11 (0.0014) | 1° bile acids, average change ± standard deviation [1]: 963 ± 146 (<0.001) ug/L | 1°:2° bile acid ratio, average change ± standard deviation [1]: 19 ± 3.5 (<0.0001) | 2° bile acids, average change ± standard deviation [1]: −1,266 ± 570 (0.030) ug/L
